Where two headings read alike, the source gives them in different places. Results are given in words; binding and its absence hold for the method and conditions named. Binding seen in cells or lysates may run through a third protein. Some results given as binding are weak or reduced against the parent protein; the word gives no strength.
Columns and labels:
[1] = molecular target: myc-tagged EZH2 (Enhancer of zeste homolog 2) (UniProt Q15910); experiment: co-IP
[2] = molecular target: myc-tagged EZH2 (Enhancer of zeste homolog 2) (UniProt Q15910); experiment: co-IP; remark: listed apart in the source

Amino acid sequences for entries named in this document (tags omitted).
UniProt Q15910, whole entry: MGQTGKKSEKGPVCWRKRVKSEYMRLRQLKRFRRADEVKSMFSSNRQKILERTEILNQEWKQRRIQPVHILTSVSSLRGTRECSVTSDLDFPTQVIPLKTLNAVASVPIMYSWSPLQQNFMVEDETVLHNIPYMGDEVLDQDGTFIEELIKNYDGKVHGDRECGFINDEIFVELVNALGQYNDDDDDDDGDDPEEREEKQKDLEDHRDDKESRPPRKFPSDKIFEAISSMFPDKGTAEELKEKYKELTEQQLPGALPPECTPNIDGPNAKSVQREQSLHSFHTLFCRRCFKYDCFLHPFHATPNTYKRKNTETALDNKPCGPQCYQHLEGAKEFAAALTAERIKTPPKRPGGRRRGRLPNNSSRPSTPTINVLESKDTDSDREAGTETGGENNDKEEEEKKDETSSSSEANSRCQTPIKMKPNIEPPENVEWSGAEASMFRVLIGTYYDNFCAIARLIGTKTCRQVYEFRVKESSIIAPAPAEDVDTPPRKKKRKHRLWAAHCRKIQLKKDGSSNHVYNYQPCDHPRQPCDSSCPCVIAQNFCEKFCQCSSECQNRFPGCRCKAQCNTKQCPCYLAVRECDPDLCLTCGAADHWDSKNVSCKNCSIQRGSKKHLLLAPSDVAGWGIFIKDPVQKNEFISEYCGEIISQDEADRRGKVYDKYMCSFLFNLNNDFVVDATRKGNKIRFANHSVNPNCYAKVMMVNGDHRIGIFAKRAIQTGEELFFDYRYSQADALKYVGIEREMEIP
UniProt Q04206, whole entry: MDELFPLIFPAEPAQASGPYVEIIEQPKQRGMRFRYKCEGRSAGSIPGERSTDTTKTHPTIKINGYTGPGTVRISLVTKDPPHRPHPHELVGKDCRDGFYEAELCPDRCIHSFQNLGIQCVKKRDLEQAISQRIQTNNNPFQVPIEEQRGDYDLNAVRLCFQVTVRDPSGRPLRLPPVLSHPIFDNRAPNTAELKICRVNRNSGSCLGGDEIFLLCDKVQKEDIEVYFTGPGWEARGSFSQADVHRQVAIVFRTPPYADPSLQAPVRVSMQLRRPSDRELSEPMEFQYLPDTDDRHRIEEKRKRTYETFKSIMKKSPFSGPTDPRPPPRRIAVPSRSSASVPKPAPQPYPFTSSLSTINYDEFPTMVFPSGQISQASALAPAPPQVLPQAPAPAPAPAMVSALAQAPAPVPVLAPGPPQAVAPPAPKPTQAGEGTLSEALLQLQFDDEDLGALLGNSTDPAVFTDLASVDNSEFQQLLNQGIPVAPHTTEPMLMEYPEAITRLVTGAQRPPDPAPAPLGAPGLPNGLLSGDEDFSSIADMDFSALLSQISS

FLAG-tagged p65 (from UniProt Q04206 1-551)
binding [1]: binds | binding [2]: binds

Source: paper doi:10.1101/329912
